Test results reported in publication PMC10925683.
Results are given in words; binding and its absence hold for the method and conditions named. Binding seen in cells or lysates may run through a third protein. Where a sequence is shown, tags or fusion partners need not be part of it.

Amino acid sequences for entries named in this document (tags omitted). A change or cut given only in a name is not applied to a line headed by its entry.
UniProt P01584: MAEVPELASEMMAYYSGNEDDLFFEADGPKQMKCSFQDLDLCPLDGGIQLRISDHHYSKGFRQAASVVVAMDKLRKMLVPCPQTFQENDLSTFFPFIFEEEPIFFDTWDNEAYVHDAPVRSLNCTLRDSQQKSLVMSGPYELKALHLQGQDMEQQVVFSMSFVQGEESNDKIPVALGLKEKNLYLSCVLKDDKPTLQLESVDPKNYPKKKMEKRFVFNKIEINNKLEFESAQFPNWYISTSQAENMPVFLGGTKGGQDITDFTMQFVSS

Target: T1, ubiquitin specific protease 50 (Flag-USP50) (UniProt Q70EL3)
T1 sequence: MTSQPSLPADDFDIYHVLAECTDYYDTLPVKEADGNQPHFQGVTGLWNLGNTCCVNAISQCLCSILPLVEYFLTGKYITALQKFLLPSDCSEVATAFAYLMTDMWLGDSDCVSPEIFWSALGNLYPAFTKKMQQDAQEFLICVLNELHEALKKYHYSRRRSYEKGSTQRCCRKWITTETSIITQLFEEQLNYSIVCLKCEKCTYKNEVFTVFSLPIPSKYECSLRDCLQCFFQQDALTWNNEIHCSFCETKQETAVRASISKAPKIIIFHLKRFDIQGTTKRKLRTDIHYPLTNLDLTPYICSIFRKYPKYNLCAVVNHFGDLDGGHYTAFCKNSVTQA
Assay: co-IP; lysate of U937 cells stably expressing Flag-USP50 (or vector); anti-FLAG antibody overnight at 4°C, agarose 4 h, washed three times; western blotting of the precipitate

- binding: no binding
Substance: pro-IL-1β (from UniProt P01584)
